Data as given in PubChem BioAssay AID1224830 (NIAID, 2016).

Assay: 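Regulators of TLR4 signalling towards TNF-alpha in macrophage-like cells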 (primary screen)
Cell system: human THP-1 monocytic leukaemia cells, TNF dual-luciferase reporter clone, PMA-differentiated to macrophage-like cells
Knock-down reagent: siRNA pool against human genes, 50 nM
Duration: LPS for 4 h, given about 3 days after siRNA transfection
Conditions: bacterial LPS (TLR4 ligand), 10 ng/ml
Measurement: 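TNF firefly reporter luminescence divided by renilla, normalised to the plate median, then turned into a robust z-score for each replicate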
Reading the numbers: TNF reporter robust z-score: higher = stronger TNF reporter response to LPS
Active means: 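a well is active when its z-score exceeds 2.8 or falls below -1.5; control wells carry no call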
This is a random part of about 18,000 reagents. Of all reagents, about 2,900 (16%) got an active call. 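Calls are made per well; low scores hint the gene aids the LPS response, high scores that it dampens it.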 Repeated entries: four replicate wells of each siRNA pool.

target gene | TNF reporter robust z-score | call
RGPD2 (GeneID 729857) | -1.18 | inactive
RGPD2 (GeneID 729857) | -0.67 | inactive
RGPD2 (GeneID 729857) | -0.97 | inactive
RGPD2 (GeneID 729857) | -0.21 | inactive
SACK1H (GeneID 286077) | 0.61 | inactive
SACK1H (GeneID 286077) | -0.16 | inactive
SACK1H (GeneID 286077) | 0.44 | inactive
SACK1H (GeneID 286077) | 0.48 | inactive
LTV1 (GeneID 84946) | 0.53 | inactive
LTV1 (GeneID 84946) | 1.98 | inactive
LTV1 (GeneID 84946) | 2.27 | inactive
LTV1 (GeneID 84946) | 1.03 | inactive
OR10H3 (GeneID 26532) | -0.18 | inactive
OR10H3 (GeneID 26532) | 0.32 | inactive
OR10H3 (GeneID 26532) | -0.11 | inactive
OR10H3 (GeneID 26532) | 0.76 | inactive
SOCS5 (GeneID 9655) | 0.17 | inactive
SOCS5 (GeneID 9655) | -0.22 | inactive
SOCS5 (GeneID 9655) | -0.31 | inactive
SOCS5 (GeneID 9655) | -0.08 | inactive

6 of these entries, set out differently.
OR10H3 (GeneID 26532)
- TNF reporter robust z-score: -0.11
- call: inactive

OR10H3 (GeneID 26532)
- TNF reporter robust z-score: 0.76
- call: inactive

SOCS5 (GeneID 9655)
- TNF reporter robust z-score: 0.17
- call: inactive

SOCS5 (GeneID 9655)
- TNF reporter robust z-score: -0.22
- call: inactive

SOCS5 (GeneID 9655)
- TNF reporter robust z-score: -0.31
- call: inactive

SOCS5 (GeneID 9655)
- TNF reporter robust z-score: -0.08
- call: inactive

Next entries:
target gene | TNF reporter robust z-score | call
MRS2 (GeneID 57380) | 0.76 | inactive
MRS2 (GeneID 57380) | 0 | inactive
MRS2 (GeneID 57380) | 1.89 | inactive
MRS2 (GeneID 57380) | 0.2 | inactive
NUP62CL (GeneID 54830) | 1.33 | inactive
NUP62CL (GeneID 54830) | -0.46 | inactive
NUP62CL (GeneID 54830) | 0.24 | inactive
NUP62CL (GeneID 54830) | -0.5 | inactive
ITGB4 (GeneID 3691) | 0.74 | inactive
ITGB4 (GeneID 3691) | 1.7 | inactive
ITGB4 (GeneID 3691) | 1.74 | inactive
ITGB4 (GeneID 3691) | 1.61 | inactive
IFT74 (GeneID 80173) | -0.77 | inactive
IFT74 (GeneID 80173) | -0.56 | inactive
IFT74 (GeneID 80173) | -0.25 | inactive
IFT74 (GeneID 80173) | 1.2 | inactive
LRRC75B (GeneID 388886) | -0.5 | inactive
LRRC75B (GeneID 388886) | 0.78 | inactive
LRRC75B (GeneID 388886) | -0.57 | inactive
LRRC75B (GeneID 388886) | 1.42 | inactive
AP5Z1 (GeneID 9907) | -0.25 | inactive
AP5Z1 (GeneID 9907) | -0.18 | inactive
AP5Z1 (GeneID 9907) | 0.57 | inactive
AP5Z1 (GeneID 9907) | 0.11 | inactive
CUX2 (GeneID 23316) | -0.78 | inactive
CUX2 (GeneID 23316) | -0.79 | inactive
CUX2 (GeneID 23316) | 0.09 | inactive
CUX2 (GeneID 23316) | 0.68 | inactive
